Hit rate of the full screen: of about 31,000 sequences, about 1,400 (4.5%) were called active.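 How the source made its calls: active means median seed-adjusted z-score above 1 or below -1; inactive means the rest.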 Some of the results follow.
Assay: Novel Modifiers of Survival Motor Neuron (SMN) Protein: Gene Identification via Genome-wide siRNA Screen;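 further: luminescence tracks full-length SMN protein made from the SMN2 reporter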
Conditions: HEK293T SMN2-luciferase reporter, siRNA knockdown, 72 h; actives lie on both sides
Summary of the method: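 siRNA screen, 10418 genes ×3 siRNAs; 1 pmol/well, lipid reverse transfection into HEK293T SMN2-luc reporter line. 72 h, 37 °C, 5% CO2; ONE-Glo readout. Data: neg-ctrl normalized, log10, MAD; hit = MAD >1.0 or < -1.0.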
For GGAACUCCACGGUCAUCUUTT against MCHR1, the median seed-adjusted z-score was inactive: -0.42.
In the case of GAAGGGCUCUUUCACAGCUTT against ADAMTS13, the median seed-adjusted z-score is reported as inactive: -0.276.
For CCAUAACCUUAUUGACGCATT against LRFN4, the median seed-adjusted z-score was inactive: -0.076.
In the case of GGAUGUUUUUCUUCGAAAATT against MAGI3, the median seed-adjusted z-score is reported as inactive: 0.202.
In the case of GCUCAAUGAAAUCAAUUAUTT against CFB, the median seed-adjusted z-score is reported as inactive: 0.132.
In the case of GACUUUUGCAGACAAAUCATT against CAPZB, the median seed-adjusted z-score is reported as inactive: -0.106.
For GAAGAUGACAUGUACCGUATT against XPA, the median seed-adjusted z-score was active: 2.03.
In the case of CAACGGUAAUUAUCAGUCATT against FABP7, the median seed-adjusted z-score is reported as inactive: 0.562.
In the case of CGGUGGACACGGUCAUCUATT against NEURL, the median seed-adjusted z-score is reported as inactive: -0.268.
For GUACCAGAAGUAUAAGUUUTT against VBP1, the median seed-adjusted z-score was inactive: 0.317.
With GUAUCUUCUUAGAAGUGGATT against HEMK1 the median seed-adjusted z-score was inactive: 0.101.
With GGACAUUUUUGGUGAGAAATT against PKIB the median seed-adjusted z-score was inactive: 0.147.
With GAACUUAGCUAAAUUGACUTT against BCHE the median seed-adjusted z-score was inactive: 0.117.
In the case of CGCACUGCAUCAAAAUCCATT against GJD2, the median seed-adjusted z-score is reported as inactive: -0.229.
In the case of GCAACCUCUUUAUCGAUAATT against SLC35A3, the median seed-adjusted z-score is reported as inactive: 0.321.
With GAACAAUACAUACUAGCAATT against SGCZ the median seed-adjusted z-score was inactive: 0.0893.
For ACAACUUCCUGGUCGCUGATT against GPR62, the median seed-adjusted z-score was inactive: 0.0306.
With UGCUGACAGAUCACCCAUATT against DDAH2 the median seed-adjusted z-score was inactive: -0.301.
With GACGGAAGAUGACUUUGUATT against RNASE4 the median seed-adjusted z-score was inactive: -0.0112.
With GCUUAUCCAUUGGAACUGUTT against NEK9 the median seed-adjusted z-score was inactive: 0.0698.
For CUGCAUGAGUAUGACAUGATT against CPSF4, the median seed-adjusted z-score was inactive: 0.298.
With GAAUCAAUAUAAUCUAGCATT against UBE2Q2 the median seed-adjusted z-score was inactive: 0.146.
For CAACCUUUUCACUAAGGAATT against USP21, the median seed-adjusted z-score was inactive: 0.248.
With GACUUAAUGAGGUCAUAAATT against LHCGR the median seed-adjusted z-score was inactive: -0.152.
With CGACAUGAAUAAGAUCAAUTT against PAPPA the median seed-adjusted z-score was inactive: -0.0169.
With GGCAUUACGUUUCUAGGUATT against AQP6 the median seed-adjusted z-score was inactive: 0.008.
With GACUGACAAUUGAGUUACATT against TAF7 the median seed-adjusted z-score was inactive: -0.593.
In the case of CUAUCACCUGGACUGUAUATT against RNF11, the median seed-adjusted z-score is reported as inactive: -0.365.
In the case of GGACAAGUAGCAAAGCGAATT against SLC7A14, the median seed-adjusted z-score is reported as inactive: 0.132.
In the case of GACCUAUGCAGUUCGAAAATT against SFRS1, the median seed-adjusted z-score is reported as active: -1.66.
In the case of CACCAUUGCAAACCAAAUATT against KCNQ5, the median seed-adjusted z-score is reported as inactive: 0.0191.
With CAACAGCAGUGUCUAUUUUTT against IL22RA2 the median seed-adjusted z-score was inactive: -0.147.
For GGGAACAAUUUACAAGUAATT against ZNF233, the median seed-adjusted z-score was inactive: 0.59.
With GGUAGCUCCAGAUAAGGAATT against DYNLRB2 the median seed-adjusted z-score was inactive: 0.534.
For GCAUGUCUGACAUAAUGUATT against CYP4A11, the median seed-adjusted z-score was inactive: -0.762.
With GGAGCAUUCAUGAUCUAGATT against ZNF25 the median seed-adjusted z-score was inactive: -0.145.
With CUUCACGUGUGUGACCUGCTT against FBLIM1 the median seed-adjusted z-score was inactive: 0.0604.
In the case of GAACAUCUCUUCGUACUAATT against CCT6A, the median seed-adjusted z-score is reported as inactive: -0.286.
In the case of ACUCCAUGAUCAAUCCCAUTT against GPR6, the median seed-adjusted z-score is reported as inactive: 0.
In the case of GCUUGUUCAUGGACGAGAATT against YARS2, the median seed-adjusted z-score is reported as inactive: 0.0901.
In the case of GGCUAGUGAUCGACCGUAATT against FADS1, the median seed-adjusted z-score is reported as inactive: -0.905.
For GCUUCGUCCAGGAAGAUAATT against GPR158, the median seed-adjusted z-score was inactive: 0.198.
For GCCCGAAAGAGAAAGCGAATT against POU5F1, the median seed-adjusted z-score was inactive: 0.0495.
With GCCUCAACUACCUUCCUGATT against CCL23 the median seed-adjusted z-score was inactive: -0.285.
For GCUUUUAGACAAUCCUUAATT against ZNF91, the median seed-adjusted z-score was inactive: 0.105.
For ACAACAUCAUGAUCCGAGATT against PIK3CD, the median seed-adjusted z-score was inactive: 0.00831.
In the case of ACAGAACCCUGACCAUGUATT against STAT5A, the median seed-adjusted z-score is reported as inactive: -0.229.
For GGUUGUGAUGUGGUAGUUATT against MDH2, the median seed-adjusted z-score was inactive: 0.185.
For GGACUCGUUUCAUUGCUUUTT against DUSP11, the median seed-adjusted z-score was inactive: -0.0184.
With CAGAAUGUACGGUGAUAUUTT against EXOSC6 the median seed-adjusted z-score was inactive: 0.354.
With CAAUGACUGGGCAACAAUATT against DMTF1 the median seed-adjusted z-score was inactive: 0.396.
For GGCUCUUCCUCUGGGUAAATT against LIF, the median seed-adjusted z-score was inactive: 0.273.
With GUAUGAUUCUCGAGAUAUUTT against SCML2 the median seed-adjusted z-score was inactive: -0.538.
With CCAUCUUACUCACCAGGAATT against HTR1D the median seed-adjusted z-score was inactive: -0.155.
For GAUUGAUAGAAGACAAUGATT against FYN, the median seed-adjusted z-score was inactive: -0.0476.
With CAGUGUCAACAAUCAGUGATT against CALCRL the median seed-adjusted z-score was inactive: 0.28.
For CCAGUGAUGUAAGUUCUUATT against GCG, the median seed-adjusted z-score was active: -1.18.
For GGGUUACAUCAAUUGCAGATT against PRPS2, the median seed-adjusted z-score was inactive: 0.389.
With GGUUUUUGGAUGCAGCAUATT against CARS2 the median seed-adjusted z-score was inactive: 0.
With GCAACAAUCUGGGCUAUGATT against LPL the median seed-adjusted z-score was inactive: 0.389.
With CCUCAUCCCUGUUACAACATT against JAG1 the median seed-adjusted z-score was inactive: -0.32.
In the case of UGUUGUCGGUGUUCCCGUUTT against OPRL1, the median seed-adjusted z-score is reported as inactive: -0.9.
For GCAAGAAGAUGACCUACCATT against SPI1, the median seed-adjusted z-score was inactive: 0.384.
In the case of GGAUGCACCACAUCUAGUATT against RPS6KA3, the median seed-adjusted z-score is reported as inactive: -0.0233.
For CCAUUGAUGCAACAGGUAATT against USO1, the median seed-adjusted z-score was inactive: 0.21.
With GAGUUAACGUAUCAGAACATT against LRRFIP1 the median seed-adjusted z-score was inactive: -0.181.
In the case of ACAAGUUCGGCACAACUUUTT against ALX4, the median seed-adjusted z-score is reported as inactive: -0.121.
For GGCUACGUCCUGGUCUAUATT against NKIRAS2, the median seed-adjusted z-score was inactive: 0.111.
In the case of CUACCUGUUUUAAUGCUAATT against GC, the median seed-adjusted z-score is reported as inactive: 0.14.
